# According to the supplement of paper PMC9135407:
# “And” between values parts separate entries of the source, which are not always exact repeats. Identical values can stand only once. Counter-ions that a name gives are not always drawn. ± gives the standard deviation of the averaged measurements. The list shows a part of the results. Baselines shift from plate to plate; read single values as rough.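 Primary human stellate myofibroblasts activated in culture; inactivation shown by regained lipid droplets. Readout: fraction of Hoechst-counted cells exceeding a per-plate Bodipy threshold, duplicate wells, each plate with DMSO negative and nortriptyline positive controls. Hits: control-normalized score beyond the plate's top-tenth-percentile nortriptyline wells, or among its three best wells. Final well concentrations unstated.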
# Tested on: primary human hepatic stellate cells (donor 1)
# Test: percent Bodipy-positive cells; higher = more lipid droplet accumulation
# Conditions: 48 h
# [1] = library stock concentration: 3.33 mM
# [2] = library stock concentration: 10 mM
# [3] = library stock concentration: 2 mM
# [4] = library stock concentration: 80 uM
# [5] = library stock concentration: 400 uM
smiles,measurement,setting,value
Cc1cccc(C)c1OCC(=O)N[C@@H](Cc1ccccc1)[C@@H](O)C[C@H](Cc1ccccc1)NC(=O)[C@H](C(C)C)N1CCCNC1=O [Lopinavir],percent Bodipy-positive cells,[1],4.64 ± 3.5%
same,percent Bodipy-positive cells,[2],11.5 ± 6.1%
CC(C)NCC(O)COc1cccc2ccccc12.Cl (stereo unspecified),percent Bodipy-positive cells,[2],84.6 ± 2.1%
CC[N+](C)(CC)CCC[n+]1c(-c2ccccc2)c2cc(N)ccc2c2ccc(N)cc21 [Propidium iodide],percent Bodipy-positive cells,,7 ± 0.43%
same,percent Bodipy-positive cells,library stock concentration: 7.5 mM,12.1 ± 5%
O=C(O)c1ccccc1Nc1cccc(C(F)(F)F)c1 [Flufenamic acid],percent Bodipy-positive cells,,25.2 ± 7.8%
same,percent Bodipy-positive cells,[1],9.39 ± 0.87%
same,percent Bodipy-positive cells,library stock concentration: 7.1 mM,7.81% and 18.8%
same,percent Bodipy-positive cells,[2],25.7% and 36.5%
same,percent Bodipy-positive cells,library stock concentration: 17.8 mM,9.55 ± 9.4%
OCCc1ccccc1 [Phenylethyl alcohol],percent Bodipy-positive cells,library stock concentration: 16.4 mM,20.2 ± 14%
O=C(O)Cn1nnc(-c2cc(N3CCC(Oc4cc(F)ccc4Br)CC3)no2)n1,percent Bodipy-positive cells,[1],8.08 ± 5.3%
same,percent Bodipy-positive cells,[2],13.9 ± 3%
O=C(c1ccc(F)cc1)C1CCN(CCn2c(=S)[nH]c3ccccc3c2=O)CC1 [Altanserin],percent Bodipy-positive cells,[2],44.6 ± 6.8%
O=C(c1ccc(F)cc1)C1CCN(CCn2c(=S)[nH]c3ccccc3c2=O)CC1 [Altanserin hydrochloride],percent Bodipy-positive cells,[2],53.8 ± 22%
CC(=O)Nc1ccc(S(=O)(=O)c2ccc(NC(C)=O)cc2)cc1 [Acedapsone],percent Bodipy-positive cells,library stock concentration: 6 mM,22 ± 4.7%
CC(C)c1cc(-c2n[nH]c(=O)n2-c2ccc3c(ccn3C)c2)c(O)cc1O [Ganetespib],percent Bodipy-positive cells,[3],64 ± 3.9%
same,percent Bodipy-positive cells,[2],73.5 ± 7.4%
c1ccc(-c2nn3c(c2-c2ccnc4cc(OCCN5CCOCC5)ccc24)CCC3)nc1,percent Bodipy-positive cells,[4],11.4 ± 0.74%
same,percent Bodipy-positive cells,[5],9.23 ± 2.5%
same,percent Bodipy-positive cells,[3],8.37 ± 0.89%
same,percent Bodipy-positive cells,[2],10.8 ± 9.7%
O=C1Nc2ccc(Cl)cc2[C@@](C#CC2CC2)(C(F)(F)F)O1 [Efavirenz],percent Bodipy-positive cells,library stock concentration: 6.3 mM,12.9 ± 5.7%
c1ccc2sc(N3CCN(Cc4ccc5c(c4)OCO5)CC3)nc2c1 [2-[1-(4-Piperonyl)piperazinyl]benzothiazole],percent Bodipy-positive cells,[2],7.74 ± 2.2%
Nc1ccc(C(=O)O)c(O)c1 [Sodium 4-Aminosalicylate],percent Bodipy-positive cells,[1],11.2 ± 0.94%
same,percent Bodipy-positive cells,[2],28.1 ± 4.9%
Nc1ccc(C(=O)O)c(O)c1 [Aminosalicylate sodium],percent Bodipy-positive cells,[2],8.59 ± 2.6%
Nc1ccc(C(=O)O)c(O)c1 [4-aminosalicylic acid],percent Bodipy-positive cells,library stock concentration: 13.1 mM,6.58 ± 3.1%
COc1cc(CCc2cc(NC(=O)c3ccc(N4CC(C)NC(C)C4)cc3)n[nH]2)cc(OC)c1 (stereo unspecified),percent Bodipy-positive cells,[4],6.12 ± 0.23%
same,percent Bodipy-positive cells,[5],15.5 ± 3.7%
same,percent Bodipy-positive cells,[3],39.9 ± 9.3%
same,percent Bodipy-positive cells,[1],74.42 ± 0.53%
same,percent Bodipy-positive cells,[2],92.8 ± 5.3%
C[C@@H]1CC[C@@]2(OC1)O[C@H]1C[C@H]3[C@@H]4CC=C5C[C@@H](O)CC[C@]5(C)[C@H]4CC[C@]3(C)[C@H]1[C@@H]2C [Diosgenin],percent Bodipy-positive cells,[2],31 ± 10%
CNCc1ccc(C)c(NC(=O)c2ccc(Nc3nc(-c4ccccc4)c4ccccc4n3)cc2)c1,percent Bodipy-positive cells,[2],97.8 ± 1.1%
Nc1nc(/C(=C/CC(=O)O)C(=O)N[C@@H]2C(=O)N3C(C(=O)O)=CCS[C@H]23)cs1 [Ceftibuten],percent Bodipy-positive cells,library stock concentration: 4.9 mM,14.7 ± 12%
same,percent Bodipy-positive cells,[2],37.2 ± 2.1%
C=CCN1CCc2cc(O)c(O)cc2C(c2ccccc2)C1 (stereo unspecified),percent Bodipy-positive cells,[2],28.3% and 9.62%
O=C(NCCCCCCNC(=O)ON=C1CCCCC1)ON=C1CCCCC1,percent Bodipy-positive cells,[2],11.5 ± 0.72%
same,percent Bodipy-positive cells,library stock concentration: 12.7 mM,21.7 ± 2.2%
CC(C)[C@H](O)C(=O)N[C@@H](C)C(=O)N[C@@H]1C(=O)N(C)CCc2ccccc21,percent Bodipy-positive cells,[1],6.94 ± 0.36%
same,percent Bodipy-positive cells,[2],7.23 ± 1.3%
Cc1[nH]nc2ccc(-c3cncc(OC[C@@H](N)Cc4ccccc4)c3)cc12,percent Bodipy-positive cells,[2],99.57 ± 0.6%
CN1CCN(CCCN2c3ccccc3Sc3ccc(C(F)(F)F)cc32)CC1.Cl.Cl [Trifluoperazine dihydrochloride],percent Bodipy-positive cells,[2],92.7 ± 2.4%
Cc1c(S(=O)(=O)O)oc2c1C(=O)C(=O)c1c-2ccc2c1CCCC2(C)C [Tanshinone iia sulfonate sodium],percent Bodipy-positive cells,[2],31.5 ± 3.2%
CC(C)NC[C@H](O)COc1cccc2ccccc12.Cl,percent Bodipy-positive cells,library stock concentration: 16.9 mM,88.9 ± 1.9%
NCCCS(=O)(=O)O [3-aminopropanesulphonic acid],percent Bodipy-positive cells,[2],22.5 ± 1.1%
NCCCS(=O)(=O)O [3-Amino-1-propanesulfonic acid sodium],percent Bodipy-positive cells,[2],25.5 ± 3.8%
CCOC(=O)c1ccnc(C(=O)OCC)c1,percent Bodipy-positive cells,library stock concentration: 1 mM,13.2 ± 6.3%
CCC(=O)O[C@]1(C(=O)SCF)[C@H](C)C[C@H]2[C@@H]3C[C@H](F)C4=CC(=O)C=C[C@]4(C)[C@@]3(F)[C@@H](O)C[C@@]21C [Fluticasone propionate],percent Bodipy-positive cells,,6.03 ± 0.066%
same,percent Bodipy-positive cells,[1],62.3 ± 4.4%
same,percent Bodipy-positive cells,[2],85.3% and 63.7%
CCC(=O)O[C@]1(C(=O)SCF)[C@H](C)C[C@H]2[C@@H]3C[C@H](F)C4=CC(=O)C=C[C@]4(C)[C@@]3(F)[C@@H](O)C[C@@]21C,percent Bodipy-positive cells,[2],52.4 ± 4.7%
C[N+]1(C)CCCC1C(=O)O (stereo unspecified) [Stachydrine hydrochloride],percent Bodipy-positive cells,,31.3 ± 0.94%
Cl.OCCN1CCN(CC/C=C2/c3ccccc3Sc3ccc(Cl)cc32)CC1 [Zuclopenthixol hydrochloride],percent Bodipy-positive cells,,66.8 ± 7.9%
NS(=O)(=O)c1nn2cc(-c3ccccc3)nc2s1,percent Bodipy-positive cells,[2],34.206 ± 0.0064%
CCc1cc(Cl)c(OC)c(C(=O)NC[C@@H]2CCCN2CC)c1O,percent Bodipy-positive cells,[2],70.4 ± 3.3%
CC1=CC(=O)C2=C(C)CC[C@@H]3[C@H](OC(=O)[C@H]3C)[C@@H]12 [Leucomisine],percent Bodipy-positive cells,,10.3 ± 1.2%
CN(C)CCOC(=O)C(c1ccccc1)C1(O)CCCC1 (stereo unspecified) [Cyclopentolate hydrochloride],percent Bodipy-positive cells,,13 ± 4.3%
same,percent Bodipy-positive cells,library stock concentration: 6.1 mM,2.4 ± 0.57%
same,percent Bodipy-positive cells,[2],23.9 ± 1.2%
